Measured values taken from patent publication US5985837A, “Dolastatin 15 derivatives” (BASF Aktiengesellschaft, priority 1998, dated 1999).
Part of at least one peptide drawing is inferred or uncertain, most often the ends.

Tested on: tumor cells such as the HT-29 colon carcinoma or LX-1 lung tumor
Assay: Cytotoxicity, microculture tetrazolium assay (MTT)
Assay type: cell-based
Conditions: 48 hours incubation, concentration giving T/C of 50% growth inhibition, cell line not given
Protocol: Cytotoxicity was measured using a standard methodology for adherent cell lines, such as the microculture tetrazolium assay (MTT). Details of this assay have been published (Alley, M. C. et al., Cancer Research 48:589-601, 1988). Exponentially growing cultures of tumor cells such as the HT-29 colon carcinoma or LX-1 lung tumor were used to make microtiter plate cultures. Cells were seeded at 5000-20,000 cells per well in 96-well plates (in […] of media), and grown overnight at 37° C. Test compounds were added, in 10-fold dilutions varying from 10^-4 M to 10^-10 M. Cells were then incubated for 48 hours. To determine the number of viable cells in each well, the MTT dye was added ([…] of a 3 mg/mL solution of 3-(4,5-dimethylthiazol-2-yl)-2,5-diphenyltetrazolium bromide in saline). This mixture was incubated at 37° C. for 5 hours, and then […] of 25% SDS, pH 2, was added to each well. After an overnight incubation, the absorbance of each well at 550 nm was read using an ELISA reader. The values for the mean ±SD of data from replicated wells were calculated, using the formula % T/C (% viable cells treated/control). The concentration of test compound which gives a T/C of 50% growth inhibition was designated as the IC50.

CC(C)[C@H](NC(=O)[C@H](C(C)C)N(C)C)C(=O)N(C)[C@H](C(=O)N1CCC[C@H]1C(=O)NC1CCCC1C(=O)NCc1ccccc1)C(C)C (stereo partly drawn) [VII-2, Me2 Val-Val-MeVal-Pro-[cis-2-aminocyclopentanecarboxylic acid]-NHBn]
IC50: > 1 µM
